# Experiment: Sweetness evaluation of CC-00489 compared to sucrose reference (sip & spit taste test, two panelists)
# Format: in vivo
# Conditions: 400 ppm in DI water, one panelist
structure (smiles),measurement,value
"C[C@H](CCC(OC1OC(COC2OCC(O)C(O)C2O)C(O)C(O)C1OCC1OC(CO)C(O)C(O)C1O)C(C)(C)O)[C@H]1CC[C@@]2(C)C3CC=C4[C@@H](CC[C@H](OC5OC(CO)C(O)C(O)C5O)C4(C)C)[C@]3(C)[C@H](O)C[C@]12C (stereo partly drawn) [CC-00489, mogrol-3-O-[β-D-glucopyranoside]-24-O-{[β-D-glucopyranosyl-(1→2)]-[β-D-xylopyranosyl-(1→6)]-β-D-glucopyranoside}]",astringency (taste profile),weak astringency
same,mouthfeel (taste profile),good mouthfeel

# Reference: US12557831B2, “Mogrosides and uses of the same” (The Coca-Cola Company, priority 2019, dated 2026)
